Experimental data: PubChem BioAssay AID504804 (Drosophila RNAi Screening Center, 2011)
Aim: 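Knock-downs shielding fly cells from apoptosis caused by DNA damage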 (primary screen). Cell system: Drosophila Kc cells. Reagents: long dsRNA against Drosophila genes, 0.5 µg dsRNA per well. Duration: 96 h (48 h knock-down, then 48 h drug). Treatment: doxorubicin 5 µg/ml for 48 h, added 48 h after dsRNA. Measured: 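Viability measured as cellular ATP by luminescence after 48 h knock-down then 48 h doxorubicin at 5 µg/ml; unnormalised plate counts for each replicate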. Direction: raw ATP luminescence: higher = more viable cells, protection from doxorubicin. Rule for the call: 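z-score of 2 or more over plate mean in both duplicates, retained only when retests and separate dsRNAs confirm the protection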.
In all, the deposit lists about 19,000 reagents; this is a random part of those that have a named target and a result. In the full data, 47 (0.25%) got an active call. 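Signals are raw, not normalised; exact z-scores behind calls not deposited; actives needed confirmation, so some wells reaching 2 SD are inactive.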 The numbers tell different reagents against one gene apart.

predicted target	reagent	raw ATP luminescence, replicate 1	raw ATP luminescence, replicate 2	call
CG13084 (GeneID 35229)	1	53820	62733	inactive
dsx (GeneID 40940)	1	65180	72427	inactive
dsx (GeneID 40940)	2	51487	58907	inactive
nAChRalpha4 (GeneID 40521)	1	36747	55643	inactive
CG4615 (GeneID 31656)	1	2.30e5	2.18e5	inactive
CG17562 (GeneID 42021)	1	80270	61850	inactive
Ebp (GeneID 38009)	1	71127	70830	inactive
Tpst (GeneID 32312)	1	2.28e5	2.18e5	inactive
Tpst (GeneID 32312)	2	3.58e5	3.57e5	inactive
Tpst (GeneID 32312)	3	3.82e5	3.60e5	inactive
Tpst (GeneID 32312)	4	78120	97130	inactive
Eato (GeneID 34783)	1	97183	85033	inactive
Eato (GeneID 34783)	2	66820	76287	inactive
CG33768 (GeneID 3771840)	1	53337	49437	inactive
Msr-110 (GeneID 38629)	1	47923	54977	inactive
HmgZ (GeneID 37480)	1	1.15e5	1.20e5	inactive
HmgZ (GeneID 37480)	2	59680	58543	inactive
Ino80 (GeneID 42314)	1	72800	81100	inactive
Ino80 (GeneID 42314)	2	53900	73770	inactive
Ino80 (GeneID 42314)	3	62080	62580	inactive
CG4619 (GeneID 34321)	1	88783	59600	inactive
MED21 (GeneID 3354977)	1	3.38e5	2.80e5	inactive
CG13102 (GeneID 34228)	1	39497	79980	inactive
msn (GeneID 44030)	1	1.68e5	1.45e5	inactive
stwl (GeneID 39581)	1	17637	17083	inactive
Cpr78Cb (GeneID 40353)	1	53533	45853	inactive
CG8087 (GeneID 41764)	1	76170	60930	inactive
Eaat1 (GeneID 34251)	1	47660	65953	inactive
CG2841 (GeneID 44529)	1	2.35e5	2.36e5	inactive
CG2841 (GeneID 44529)	2	42170	50530	inactive
Cht5 (GeneID 41687)	1	53233	36430	inactive
Cont (GeneID 40553)	1	13897	14477	inactive
Chchd2 (GeneID 32701)	1	4.01e5	2.93e5	inactive
Bre1 (GeneID 38652)	1	54483	73660	inactive

Reprinted from the entries so far for reference:
predicted target	reagent	raw ATP luminescence, replicate 1	raw ATP luminescence, replicate 2	call
HmgZ (GeneID 37480)	2	59680	58543	inactive
Ino80 (GeneID 42314)	1	72800	81100	inactive
Ino80 (GeneID 42314)	2	53900	73770	inactive
Ino80 (GeneID 42314)	3	62080	62580	inactive
